Data as given in BigSolDB 2.1.

Molecule `CCCCc1oc2ccccc2c1C(=O)c1cc(I)c(OCCN(CC)CC)c(I)c1.Cl` has a solubility (mole fraction) (in ethanol, 298 K) of 0.00159, a solubility (mole fraction) (in ethanol, 310 K) of 0.00583 and a solubility (mole fraction) (in propylene glycol, 298 K) of 0.00308. For the same molecule, the solubility (mole fraction) (in propylene glycol, 310 K) was 0.00967, the solubility (mole fraction) (in water, 298 K) was 6e-06 and the solubility (mole fraction) (in water, 310 K) was 1.2e-05.
Work on `CN1C(=O)CN=C(c2ccccc2)c2cc(Cl)ccc21` yielded a solubility (mole fraction) (in PEG-200, 303.2 K) of 0.0344, a solubility (mole fraction) (in tert-butanol, 299.15 K) of 0.00634 and a solubility (mole fraction) (in tert-butanol, 303.15 K) of 0.00762. For the same molecule, the solubility (mole fraction) (in tert-butanol, 308.15 K) was 0.00928, the solubility (mole fraction) (in tert-butanol, 313.15 K) was 0.012 and the solubility (mole fraction) (in water, 293.15 K) was 2.69e-06. For the same molecule, the solubility (mole fraction) (in water, 299.15 K) was 3.01e-06, the solubility (mole fraction) (in water, 303.15 K) was 3.6e-06 and the solubility (mole fraction) (in water, 303.2 K) was 4e-06. It also gave a solubility (mole fraction) (in water, 308.15 K) of 3.97e-06 and a solubility (mole fraction) (in water, 313.15 K) of 4.86e-06.
